In publication PMC12607029:
Results are given in words; binding and its absence hold for the method and conditions named. Binding seen in cells or lysates may run through a third protein. Some binding calls cover weakened binding; strength is not graded here.

By UniProt entry, the sequences of proteins in these tests, tags left out.
UniProt P06748: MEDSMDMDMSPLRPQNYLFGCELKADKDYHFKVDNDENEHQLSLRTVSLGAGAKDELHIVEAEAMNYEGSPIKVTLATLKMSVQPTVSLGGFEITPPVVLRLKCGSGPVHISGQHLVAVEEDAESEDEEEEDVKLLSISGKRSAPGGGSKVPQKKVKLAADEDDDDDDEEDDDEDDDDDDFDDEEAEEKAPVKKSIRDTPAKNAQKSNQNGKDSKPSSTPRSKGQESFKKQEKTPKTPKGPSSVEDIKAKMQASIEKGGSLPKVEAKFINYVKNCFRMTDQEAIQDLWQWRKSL
UniProt Q9BQ67: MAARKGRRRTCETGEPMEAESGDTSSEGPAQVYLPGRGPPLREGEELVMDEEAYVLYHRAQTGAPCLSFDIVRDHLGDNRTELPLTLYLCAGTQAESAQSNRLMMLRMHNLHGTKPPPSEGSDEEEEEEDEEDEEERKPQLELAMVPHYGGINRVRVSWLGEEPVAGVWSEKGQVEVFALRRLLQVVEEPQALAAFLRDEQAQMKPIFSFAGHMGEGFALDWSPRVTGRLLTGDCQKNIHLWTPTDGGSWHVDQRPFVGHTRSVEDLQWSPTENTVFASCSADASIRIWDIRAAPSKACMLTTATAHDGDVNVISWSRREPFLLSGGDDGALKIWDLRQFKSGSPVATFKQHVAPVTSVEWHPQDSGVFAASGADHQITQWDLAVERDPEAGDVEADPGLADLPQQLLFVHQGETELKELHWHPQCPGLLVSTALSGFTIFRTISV

What was measured:
[1] = molecular target: nucleophosmin 1 (NPM1), exogenous (UniProt P06748); experiment: co-IP; exogenous GRWD1 and NPM1 in 293T cells
[2] = molecular target: nucleophosmin 1 (NPM1), endogenous (human (endogenous in HepG2 and SK-Hep-1)) (UniProt P06748); experiment: co-IP; endogenous proteins in HepG2 and SK-Hep-1 cells; also before and after OXA (20 μM) treatment for 12 h (interaction enhanced after OXA)

“glutamate-rich WD repeat containing 1 (GRWD1), exogenous (from UniProt Q9BQ67 1-446)” was tested. Which binding [1] did it give?
Its binding is “binds”.

“glutamate-rich WD repeat containing 1 (GRWD1), endogenous (from UniProt Q9BQ67 1-446)” was tested. Which binding [2] did it give?
Its binding is “binds”.
